Measured values from paper PMC6028919, “Scc2 Is a Potent Activator of Cohesin’s ATPase that Promotes Loading by Binding Scc1 without Pds5” (Molecular Cell, 2018).

Biological target: GST-Scc2_(171–1504) (S. cerevisiae)
Experiment: pull-down; 10 μg GST-Scc2_(171-1504) on Glutathione Sepharose 4B beads; 35S-labelled in vitro translated Scc1, in the absence or presence of 10 μg ScSmc3head; 1 h at 4°C in 20 mM Tris-HCl pH 7.5, 150 mM NaCl, 0.1% Triton X-100; phosphorimager; only the target purified

| binding | Binder |
| --- | --- |
| binds | Scc1_(1–566) triple mutant (Δ196–203 Δ244–251 Δ281–288) (protein, UniProt Q12158, 35S label) MVTENPQRLTVLRLATNKGPLAQIWLASNMSNIPRGSVIQTHIAESAKEIAKASGCDDESGDNEYITLRTSGELLQGIVRVYSKQATFLLTDIKDTLTKISMLFKTSQKMTSTVNRLNTVTRVHQLMLEDAVTEREVLVTPGLEFLDDTTIPVGLMAQENSMERKVQGAAPWDTSLEVGRRFSPDEDFEHNNLSSEGPITSKSWEEGTRQSSRNFDTHENYIQDDDFPLDDAGTIKNDQNNDDDDNSVEQGRRLGESIMSEEPTEKEAPAGNIDTITDAMTESQPKQTGTRRNSKLLNTKSIQIDEETENSESIASSNTYKEERSNNLLTPQPTNFTTKRLWSEITESMSYLPDPILKNFLSYESLKKRKIHNGREGSIEEPELNVSLNLTDDVISNAGTNDNSFNELTDNMSDFVPIDAGLNEAPFPEENIIDAKTRNEQTTIQTEKVRPTPGEVASKAIVQMAKILRKELSEEKEVIFTDVLKSQANTEPENITKREASRGFFDILSLATEGCIGLSQTEAFGNIKIDAKPALFERFINA |
| binds | Scc1_(1-566) Δ152-256 (protein, UniProt Q12158, 35S-methionine label) MVTENPQRLTVLRLATNKGPLAQIWLASNMSNIPRGSVIQTHIAESAKEIAKASGCDDESGDNEYITLRTSGELLQGIVRVYSKQATFLLTDIKDTLTKISMLFKTSQKMTSTVNRLNTVTRVHQLMLEDAVTEREVLVTPGLEFLDDTTINDDDDNSVEQGRRLGESIMSEEPTDFGFDLDIEKEAPAGNIDTITDAMTESQPKQTGTRRNSKLLNTKSIQIDEETENSESIASSNTYKEERSNNLLTPQPTNFTTKRLWSEITESMSYLPDPILKNFLSYESLKKRKIHNGREGSIEEPELNVSLNLTDDVISNAGTNDNSFNELTDNMSDFVPIDAGLNEAPFPEENIIDAKTRNEQTTIQTEKVRPTPGEVASKAIVQMAKILRKELSEEKEVIFTDVLKSQANTEPENITKREASRGFFDILSLATEGCIGLSQTEAFGNIKIDAKPALFERFINA |
| binds | Scc1_(1–566) double mutant (Δ196–203 Δ244–251) (protein, UniProt Q12158, 35S label) MVTENPQRLTVLRLATNKGPLAQIWLASNMSNIPRGSVIQTHIAESAKEIAKASGCDDESGDNEYITLRTSGELLQGIVRVYSKQATFLLTDIKDTLTKISMLFKTSQKMTSTVNRLNTVTRVHQLMLEDAVTEREVLVTPGLEFLDDTTIPVGLMAQENSMERKVQGAAPWDTSLEVGRRFSPDEDFEHNNLSSEGPITSKSWEEGTRQSSRNFDTHENYIQDDDFPLDDAGTIKNDQNNDDDDNSVEQGRRLGESIMSEEPTDFGFDLDIEKEAPAGNIDTITDAMTESQPKQTGTRRNSKLLNTKSIQIDEETENSESIASSNTYKEERSNNLLTPQPTNFTTKRLWSEITESMSYLPDPILKNFLSYESLKKRKIHNGREGSIEEPELNVSLNLTDDVISNAGTNDNSFNELTDNMSDFVPIDAGLNEAPFPEENIIDAKTRNEQTTIQTEKVRPTPGEVASKAIVQMAKILRKELSEEKEVIFTDVLKSQANTEPENITKREASRGFFDILSLATEGCIGLSQTEAFGNIKIDAKPALFERFINA |

These are yes or no findings as the source states them, for the method shown. In cells and extracts the contact can be indirect. Binding can be weak; no strength is given.
